In all, about 53,000 sequences went through this assay and about 3,700 (7%) were called active.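 The calls were made as follows: active = gene knockdowns whose robust z-score for IL-1 alpha signal is at least 2 or at most -2, so actives lie on both sides; inactive = the rest.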 This is one part of the list.
test: Components of the Cytosolic LPS Sensing Pathway: Gene Identification via Genome-wide siRNA Screen; conditions: RAW264.7 macrophages, IL-1a HTRF, actives lie on both sides, screened at 100 nM (by protocol), cells primed 5 h with Pam3CSK4 first;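 also: robust z of the log signal after scaling to non-targeting control siRNA wells of the plate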
In short: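 Using IL-1a HTRF as read-out, the screen measured release from RAW264.7 cells after 48h siRNA knockdown (100 nM), 5 h Pam3CSK4 priming and 24 h cytosolic LipidA. Values were expressed relative to negative-control wells as robust z-scores.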

Sequence | z-score
CCCACCACUUUCCGAAAAUTT against Pacrg | inactive: 0.596
GGGUACCAGAUGAUCCAAATT against Prmt6 | inactive: -0.233
CGAGAUGUACCUUGAUACUTT against Idh3a | inactive: 1.44
GGUGCAGAAUAUUGAAUGUTT against Fam185a | inactive: -0.829
GGAAUUUAUCAAGGUCAUGTT against Ethe1 | inactive: -0.426
CCUGCUAAAGGCUUCUCAATT against Elobl | inactive: 0.139
CGUUGUUCAAAGAUUCUCCTT against Klrg2 | inactive: 0.123
GGUUUUCUGGUCCAUUAUATT against Olfr741 | inactive: -1.86
GCUGAAGACACUCUGUGAATT against Ehbp1l1 | inactive: -1.7
GCCUUGAUUCGCAUAAUGATT against Neurl4 | inactive: -1.16
GGUUAUUCAUGUGGAAAAGTT against Obp2a | inactive: -0.918
GGAGGCUGAGUAUUGGCUUTT against Pi4k2b | inactive: -1.06
GCCAACAGUACUUUGUUAATT against Chordc1 | inactive: 0.589
GGUUAAAAAGAUCCCUUGUTT against Zfp507 | inactive: -0.11
GGCCUUGAUUCAAUUCAACTT against Tgm6 | inactive: 0.812
GGCUUGUGGUCAUCUCAUGTT against Olfr282 | inactive: 0.208
GGACUAUUCACACUAAGUCTT against Them5 | inactive: -0.214
GGUCCAGAAUCAGAGGAGUTT against Trim10 | inactive: 1.12
GGAGUUGGAGAAUGACACGTT against Ift88 | inactive: 1.14
GGACAUGGACAUCCUGAACTT against Slc29a3 | inactive: -1
GGAUGCACUGAGGAACUCATT against Atg101 | inactive: -0.573
GGGUAUAUUUGGAACUACGTT against Ppa1 | inactive: -1.2

Sequence | z-score
CCUCGAUGGUAAUAAAUGUTT against Agtrap | inactive: -1.16
GUAUUUUACACUCUUGUGGTT against Olfr898 | active: -2.31
GGUGCCUCAGAGUAAAUAUTT against Cdk2ap1 | inactive: -0.895
GGAUACAGCAGUACAAAUGTT against Ces2c | inactive: -0.135
GGCAAACACUACGGCAUCATT against Mrpl27 | inactive: 0.159
GGUAUCAGUACUUUUUGCATT against Ptpn4 | inactive: 1.7
GCCUCUCAACUUAAUAACATT against Zup1 | inactive: -0.697
CGUUGCUUCUCCAUUGAGCTT against Cdh24 | inactive: -0.669
GGAAGUGGCCCUUAAAAGGTT against Osbpl3 | inactive: 0.522
GGAAAAUUACAGAAUUGGATT against Dnali1 | inactive: 0.323
CCUGCUAGUGGAGAACAUCTT against Trim54 | inactive: 0.147
GGAGAAUCUGGACAAUGACTT against Dvl3 | inactive: -1.48
GGUGGAAGUCUUCAGACAGTT against Eif6 | inactive: 0.775
GCUGGUACGCCCACCAUAUTT against Foxi1 | inactive: 0.331
GGGACCAUCUUCCUGAUUGTT against Cdh22 | inactive: -0.222
GCUAUGCUUUUUUGCUACUTT against Olfr972 | inactive: 0.773
CCAGCAGCCUAAAAGCAGUTT against Ppard | inactive: -1.69
CGAGAACCAUAUCUCACUUTT against Ptpn2 | inactive: -0.485
GGCUCUGAAGACUGUGAUCTT against Tmed3 | inactive: 0.359
CCCAACUGUCAAAUAAUCCTT against Eddm3b | inactive: 0.0505
GGCAUUUAUUAUCAGGCUGTT against Pes1 | inactive: 0.665
GCAGAGAGAUACAUUAAAGTT against Adam10 | inactive: 1.16

Sequence | z-score
GGGUCUCUGGCUUCAUUUUTT against Socs1 | inactive: -0.494
GGAGAAGGGCUUUUCUGUUTT against Gbp5 | inactive: -0.729
GCAAGAAGAGGUGUGCGUCTT against Inf2 | inactive: 1.25
GGAACUUCACAGGAACUCUTT against Nol4 | inactive: -0.227
GGCAGUGAAUUCAACCGCATT against Gtf2f1 | inactive: 0.378
CGUGCCCAAGAAUGCCCUUTT against Actr5 | inactive: 0.595
GCAAAAAACAGGGUAACUCTT against Cacna1d | inactive: 0.44
GGGUCUCGAAGAGAUCAAUTT against Plcxd3 | inactive: 1.39
GCUCAACAGAUCAUGCCACTT against Tapbpl | inactive: 0.496
GGUUCAUGUGUGCACAGCUTT against Ehd1 | inactive: -1.39
CCAACACAUGUGGAGAGUUTT against Dars2 | inactive: 0.729
GGCCUGCCUGAAAAAAAAATT against Map1lc3a | inactive: 0.683
CCUAAGGCAAUCCCUAUUGTT against Gprasp1 | inactive: -0.424
CCAUACCUAAAUCUGCAUUTT against Celf5 | inactive: 0.515
GGAAAGUGUUUUCUCAUGATT against Klf9 | inactive: -0.23
CCGUAUCCAUUCUGAACGUTT against Zbtb8a | inactive: 0.799
GCUCAUGAGUAGCUUAGUUTT against Mtch2 | inactive: 0.56
GGUGAAAAACCCUAUAGUUTT against Zfp595 | inactive: -1.44
GGAUACCAUGGUCGUCUGATT against Gpatch2l | inactive: -0.277
GGGCAUUGAAGCAAAUAUATT against Tmprss15 | inactive: 0.323
GGAUUGAAAGCUACUCGUGTT against Maf1 | inactive: 0.533
CCUCUACACUUUAGAUGGUTT against Rack1 | inactive: -0.0311

An excerpt of these results, as labelled records.
GCUCAUGAGUAGCUUAGUUTT against Mtch2
  z-score: inactive: 0.56
GGUGAAAAACCCUAUAGUUTT against Zfp595
  z-score: inactive: -1.44
GGAUACCAUGGUCGUCUGATT against Gpatch2l
  z-score: inactive: -0.277
GGGCAUUGAAGCAAAUAUATT against Tmprss15
  z-score: inactive: 0.323

The list goes on.

Sequence | z-score
GGCCUACAGGACAAAGUUUTT against Comt | inactive: 0.394
CCUAUAAAGCUCUAAAGGATT against Caprin1 | inactive: 0.115
CGGCACCUACUUCAUCUAUTT against Eda | inactive: 0.0252
GGAAACCAGUUGCUUAAGUTT against Erich2 | inactive: -0.692
CCUAAAUCCUCUAUUUUGGTT against Fmn2 | inactive: -1.1
GCCUAAGUUUGACUUAUAATT against Parp12 | inactive: -0.0522
CGAGCUUGCUAUCGGGAAGTT against Defb7 | inactive: -0.902
GGCAAAGGCUAUCGCUCACTT against Smpd2 | inactive: -1.46
GCAUAUUGUGAUAUCAGUGTT against Siglecf | inactive: 0.77
UCUUAUGCCUUGGUGCUCATT against Olfr746 | inactive: -1.61
GGAUCAGCCCAUCUACUUGTT against Nenf | inactive: 0.0601
CCUGAUCAAGGUGAAACGGTT against Btnl2 | inactive: -0.247
CCUGCUCAUUGCAGUGACGTT against Olfr1243 | inactive: -1.09
GCCUUUCAAGAUUUGUGGGTT against Mreg | inactive: -1.4
GGCCAAACAAGACAUUCAGTT against Slmap | inactive: 1.33
GGGACCAGAAUAUGACUGGTT against Ppm1j | inactive: 0.282
GGCAGAAGUGGAAAAACAATT against Tmco1 | inactive: -0.417
GGAAUAUCACUUCCAUACATT against Ntrk3 | inactive: 0.587
GCUCCUUUAGCAUCUUAAUTT against Ccdc28a | inactive: 2
GGAAGGAUCCCAAAUUCAGTT against Pebp1 | inactive: 1.91
CCAGAAAACCAAACAACAGTT against Olfr1357 | inactive: 0.287
GGCCCUAGCAGAUGAAAAATT against Ubl4a | inactive: -0.235

Sequence | z-score
GGAGAACAACAGUAAUUACTT against Reps2 | inactive: -1.28
GGAAAGAGUAAUAAUUGUCTT against Cyp1b1 | inactive: -1.57
GGGUCAUCCAAACGCACAGTT against Uvrag | inactive: 0.609
GGAAUUCUAUGGUCUAACGTT against Usp46 | inactive: -0.867
GGCUAUGAGGACUAUCUGUTT against Dmbt1 | inactive: -0.409
CGUGCUCAUAAUUUUGAACTT against Gcc2 | inactive: 0.178
GGGACCAAUGUUCCAGGAATT against Ms4a4b | inactive: -0.233
GGCAUUCAGAGCUGAUUCATT against Mia3 | inactive: 0.93
GGCUAAAGUUGACAGCCAATT against Cd52 | inactive: 0.0939
CCGAGUAAUUGGAAGUGGUTT against Ldha | active: 2.08
CCAGCUAAACUCUGUAAAATT against Zfp639 | inactive: -0.113
CGUCCUCAGGCAAAUGACUTT against Snx21 | inactive: -0.75
GGUUCUGGGACUUAACAAATT against Rgs12 | inactive: 0.793
GGUAUAGUAGUGGAAGAUUTT against Uso1 | inactive: 0.341
GCCUUGGUAUGUUUCUAUUTT against Slc38a11 | inactive: 0.974
GGUUCAGCUGGUCCUAUCUTT against Olfr1099 | active: -2.07
GGUCCUUCACAGUUAUGUGTT against Nsun4 | inactive: 0.104
GGGAAAGAUAAUGGCCUGCTT against Tnfrsf23 | inactive: 0.0994
GCAUUUGUAGUUAUUUCACTT against C1d | inactive: -0.732
